Data from PubChem BioAssay AID602313 (National Center for Advancing Translational Sciences (NCATS), 2012).
In all, about 390,000 compounds went through this assay and about 760 (0.19%) were called active. Inconclusive means that the source gave no clear call. Such entries were picked first, then a sample of the others. Calls follow the shape of the dose curve; as a rule, active = well fitted inhibition curve with a large enough effect; inconclusive = small, poorly fitted or top-dose-only effect; inactive = flat fitted curve, though single readings scatter. A potency beside an inconclusive call is a rough fit, not a confirmed value.
Potency is read from the fitted curve at half-maximal effect.

Assay: qHTS for Inhibitors of Vif-A3F Interactions: qHTS; also: nearly all actives have a fitted effect of over 65% in size; as to activity, negative = active: % of control where 0% means no effect
Settings: HeLa A3F-eYFP + Vif (tagged APOBEC3F with the HIV-1 protein that degrades it), YFP fluorescence increase; series mostly up to 46.1 µM; activity, negative = active: at the top concentration
Summary of the method: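 HeLa cells stably expressing Vif plus C-terminally eYFP-tagged A3F were seeded, incubated overnight at 37 deg C, dosed with compound, incubated overnight again at 37 deg C. Yellow fluorescence (Ex 488/Em 500-530) reported blocked Vif-mediated A3F-eYFP degradation.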
For CCc1ccccc1NC(=O)C1CCCN1C(=O)Nc1ccc(C)cc1 (stereo not drawn), the Potency was inconclusive: 22.4 µM [inhibitor, partial curve, poor fit].
In the case of COc1ccc(Br)cc1S(=O)(=O)NCCN1CCOCC1, the Potency was inconclusive: 3.55 µM [inhibitor, partial curve, poor fit].
For Cc1ccc(OCCC(=O)OCC(=O)N2CCN(S(=O)(=O)c3ccc(C)cc3C)CC2)cc1, the Potency was inconclusive: 3.98 µM [inhibitor, single point].
With COc1cccc(CN(C)c2nc(-c3cccs3)nc3ccccc23)c1 the “activity, negative = active” value was inactive: -5.83%.
In the case of O=C(/C=C/c1cn(CC(O)CN2CCCCCC2)c2ccccc12)c1cccs1 (stereo not drawn), the Potency was inconclusive: 35.5 µM [inhibitor, single point].
In the case of CC1=C(C(=O)N2CCCC(C(=O)c3cccc4ccccc34)C2)OCCO1 (stereo not drawn), the Potency was inconclusive: 3.16 µM [inhibitor, single point].
For O=C(O)c1ccccc1C=NNc1ccc([N+](=O)[O-])cn1, the Potency was inconclusive: 20 µM [inhibitor, partial curve, poor fit].
For COc1ccc(C(C(=O)NC2CCCCC2)N(Cc2cccs2)C(=O)Cc2c[nH]c3ccccc23)cc1OC (stereo not drawn), the Potency was inconclusive: 1.26 µM [inhibitor, full curve].
With CCOC(=O)C1(CCCc2ccccc2)CCN(C(=O)c2cncs2)CC1 the Potency was inconclusive: 5.62 µM [inhibitor, single point].
With COc1cc(N)c(Cl)cc1C(=O)OC(C)C(=O)Nc1cccc(S(=O)(=O)N2CCOCC2)c1 (stereo not drawn) the Potency was inconclusive: 6.31 µM [inhibitor, single point].
In the case of Cc1ccc(/C=N/Nc2nnc(Cl)c3ccccc23)cc1, the Potency was inconclusive: 35.5 µM [inhibitor, single point].
For N#Cc1ccc(NC(=O)COC(=O)C2Cc3ccccc3CN2C(=O)c2ccccc2)cc1 (stereo not drawn), the Potency was inconclusive: 12.6 µM [inhibitor, partial curve, poor fit].
With O=c1ccsn1Cc1ccccc1 the “activity, negative = active” value was inactive: -2.11%.
With O=C(CCCc1ccccc1)Nc1ccccc1[N+](=O)[O-] the “activity, negative = active” value was inactive: 2.29%.
For O=C(CCC1CCCN(C(=O)c2ccncc2)C1)NCc1ccc(F)c(F)c1 (stereo not drawn), the Potency was inconclusive: 35.5 µM [inhibitor, single point].
With CN1CCN(C2=C(Cl)C(=O)C(c3cnc(N4CCCCC4)s3)=C(Cl)C2=O)CC1 the “activity, negative = active” value was inactive: -1.16%.
In the case of O=c1nc(Oc2ccccc2)nc2ncccn12, the Potency was inconclusive: 28.2 µM [inhibitor, single point].
For Cc1cc(=O)[nH]c(SCC(=O)NCCC2=CCCCC2)n1, the “activity, negative = active” value was inactive: 13.2%.
For CC1=CC2=NC(=O)/C(=C\c3cccn3CCOc3ccc(C)c(C)c3)C(=N)N2O1, the “activity, negative = active” value was inactive: -14%.
With CCN(CC)C(=O)Cn1cnc2sc(C(=O)N3CCN(c4ccc(F)cc4)CC3)c(C)c2c1=O the Potency was inconclusive: 3.16 µM [inhibitor, single point].
With S=c1[nH]nc(-c2cc(-c3ccccc3)n[nH]2)n1/N=C/c1ccc(Cl)cc1 the “activity, negative = active” value was inactive: -2.22%.
With C/C(=N\NC(=S)NCc1ccccc1)c1ccco1 the Potency was inconclusive: 31.6 µM [inhibitor, single point].
In the case of CCOC(=O)c1cc2c(=O)n3ccccc3nc2n(C)c1=NC(=O)c1c(-c2ccccc2Cl)noc1C, the Potency was inconclusive: 3.98 µM [inhibitor, single point].
In the case of COCCCN1C(=O)/C(=C\c2ccc3c(c2)OCO3)C(C(=O)OC)=C1C, the Potency was inconclusive: 35.5 µM [inhibitor, single point].
With O=C(CN(C(=O)CCC(=O)Nc1nccs1)c1cccc(F)c1)NCc1ccc(F)cc1 the Potency was inconclusive: 35.5 µM [inhibitor, single point].
With CCNC(=S)NN=C1c2ccccc2-c2ccccc21 the Potency was inconclusive: 6.31 µM [inhibitor, single point].
For CC(=O)Nc1ccc(S(=O)(=O)NCC(CCC(=O)O)C(F)(F)F)cc1 (stereo not drawn), the “activity, negative = active” value was inactive: 3.31%.
In the case of O=C(Nc1c2c(nn1-c1ccccc1)CS(=O)(=O)C2)c1cc2ccccc2o1, the Potency was inconclusive: 35.5 µM [inhibitor, single point].
In the case of CC(Sc1nc(N)cc(=O)[nH]1)C(=O)N1CCOCC1 (stereo not drawn), the Potency was inconclusive: 25.1 µM [inhibitor, single point].
With C/C(=N\NC(=S)NCc1ccccc1)c1ccccc1F the Potency was inconclusive: 22.4 µM [inhibitor, single point].
For Cc1ccc(C)c(NC(=S)NC(NC(=O)Cc2ccccc2)C(Cl)(Cl)Cl)c1 (stereo not drawn), the Potency was inconclusive: 14.1 µM [inhibitor, single point].
For COc1cc(C(=O)Nc2ccc(N(C)C)cc2)cc(OC)c1OC, the “activity, negative = active” value was inactive: 0.898%.
In the case of O=C1COc2ccc(C(=O)COC(=O)/C=C/c3ccco3)cc2N1, the “activity, negative = active” value was inactive: 0.287%.
In the case of N#Cc1c(-c2ccccc2F)cc(C2CC2)nc1SCC(=O)c1cccs1, the Potency was inconclusive: 20 µM [inhibitor, partial curve, poor fit].
In the case of Cc1c(C#N)c(O)n(CCO)c(=O)c1N=Nc1ccccc1, the Potency was inconclusive: 35.5 µM [inhibitor, single point].
For Nc1nc(Cl)nc2c1ncn2C1OCC(O)C(O)C1O (stereo not drawn), the Potency was inconclusive: 28.2 µM [inhibitor, single point].
With COc1ccc(-c2nnc(NC(=O)c3cc(Cl)ccc3Cl)o2)cc1 the Potency was inconclusive: 35.5 µM [inhibitor, single point].
With CC1CCCCN1CC(O)COCc1ccc(Cl)cc1 (stereo not drawn) the Potency was inconclusive: 35.5 µM [inhibitor, single point].
In the case of Cc1ccccc1-n1nnnc1Sc1nnnn1-c1ccccc1, the “activity, negative = active” value was inactive: -4.72%.
For CCN1/C(=C2\OC(=S)N(C)C2=O)C=Cc2ccccc21, the Potency was inconclusive: 2.82 µM [inhibitor, partial curve, poor fit].
In the case of COc1ccc(N(CC(=O)Nc2ccc(C)c(C)c2)C2=NC3CS(=O)(=O)CC3S2)cc1 (stereo not drawn), the “activity, negative = active” value was inactive: 10.7%.
With CC(C=Cc1ccccc1)=NNS(=O)(=O)c1ccc([N+](=O)[O-])cc1 the Potency was inconclusive: 35.5 µM [inhibitor, single point].
In the case of CCN(CC)CCOC(=O)c1ccc(NC(=O)CSc2cc(=O)n(CC)c3ccccc23)cc1, the Potency was inconclusive: 35.5 µM [inhibitor, single point].
